Measured values published in patent publication US8153759B2 (National University Corporation Gunma University, priority 2006, dated 2012).

Experiment: general procedure: solution-phase peptide synthesis; EDC.HCl/HOBt (also DCC/HOBt)
Conditions: coupling step, TFA salt or hydrochloride salt after Boc removal

Question: Which step yield does the source give for Boc-(Ala-Ile-Gly-Lac-Pro)2-OBzl here?
Answer: 77.20%

Question: With Boc-(Ala-Ile-Gly-Lac-Pro)3-OBzl as the substance, how does the step yield read?
Answer: 62.8%

Question: Which step yield does the source give for Boc-Ala-Ile-Gly-Lac-Pro-OBzl here?
Answer: 58.1%

Question: For Boc-Gly-Val-Gly-Lac-Pro-OBzl, which step yield is on record?
Answer: 86%

Question: With Boc-Ile-Gly-Lac-Pro-OBzl as the substance, how does the step yield read?
Answer: ˜100%

Question: Which step yield does the source give for Boc-Val-Gly-Lac-Pro-OBzl here?
Answer: 99%

Question: Which step yield does the source give for Boc-Gly-Ile-Gly-Lac-Pro-OBzl here?
Answer: 83.9%

Question: With Boc-(Ala-Ile-Gly-Lac-Pro)4-OBzl as the substance, how does the step yield read?
Answer: 57.5%

Same assay, conditions: late stage modification step, HCl salt

Question: For HCl.H-Gly-Ile-Gly-Lac-Pro-OSu, which step yield is on record?
Answer: 94.5%

Question: Which step yield does the source give for HCl.H-(Ala-Ile-Gly-Lac-Pro)2-OBzl here?
Answer: 91.1%

Question: With HCl.H-Val-Gly-Lac-Pro-OBzl as the substance, how does the step yield read?
Answer: 92%

Question: Which step yield does the source give for HCl.H-Ala-Ile-Gly-Lac-Pro-OSu here?
Answer: ˜100%

Question: With HCl.H-(Ala-Ile-Gly-Lac-Pro)3-OBzl as the substance, how does the step yield read?
Answer: ˜100%

Same assay, conditions: late stage modification step, TFA salt or hydrochloride salt after Boc removal

Question: For Boc-Gly-Val-Gly-Lac-Pro-OSu, which step yield is on record?
Answer: 85%

Question: Which step yield does the source give for Boc-Gly-Val-Gly-Lac-Pro-OH here?
Answer: 73%

Question: For Boc-Gly-Ile-Gly-Lac-Pro-OSu, which step yield is on record?
Answer: −100%

Question: For Boc-Ala-Ile-Gly-Lac-Pro-OSu, which step yield is on record?
Answer: 96.5%

Question: Which step yield does the source give for Boc-Gly-Ile-Gly-Lac-Pro-OH here?
Answer: 87.0%

Question: For Boc-Ala-Ile-Gly-Lac-Pro-OH, which step yield is on record?
Answer: 77.2%
